# Experimental data published in the supplement of paper PMC12819154, “High-throughput peptide-centric local stability assay extends protein–ligand identification to membrane proteins, tissues and bacteria” (Nature Structural & Molecular Biology, 2025).
# The chains behind the UniProt entries cited, without tags or fusion partners. Where a name states a change or a piece, a line headed by the entry shows the natural chain unless it says otherwise.
# UniProt P61129: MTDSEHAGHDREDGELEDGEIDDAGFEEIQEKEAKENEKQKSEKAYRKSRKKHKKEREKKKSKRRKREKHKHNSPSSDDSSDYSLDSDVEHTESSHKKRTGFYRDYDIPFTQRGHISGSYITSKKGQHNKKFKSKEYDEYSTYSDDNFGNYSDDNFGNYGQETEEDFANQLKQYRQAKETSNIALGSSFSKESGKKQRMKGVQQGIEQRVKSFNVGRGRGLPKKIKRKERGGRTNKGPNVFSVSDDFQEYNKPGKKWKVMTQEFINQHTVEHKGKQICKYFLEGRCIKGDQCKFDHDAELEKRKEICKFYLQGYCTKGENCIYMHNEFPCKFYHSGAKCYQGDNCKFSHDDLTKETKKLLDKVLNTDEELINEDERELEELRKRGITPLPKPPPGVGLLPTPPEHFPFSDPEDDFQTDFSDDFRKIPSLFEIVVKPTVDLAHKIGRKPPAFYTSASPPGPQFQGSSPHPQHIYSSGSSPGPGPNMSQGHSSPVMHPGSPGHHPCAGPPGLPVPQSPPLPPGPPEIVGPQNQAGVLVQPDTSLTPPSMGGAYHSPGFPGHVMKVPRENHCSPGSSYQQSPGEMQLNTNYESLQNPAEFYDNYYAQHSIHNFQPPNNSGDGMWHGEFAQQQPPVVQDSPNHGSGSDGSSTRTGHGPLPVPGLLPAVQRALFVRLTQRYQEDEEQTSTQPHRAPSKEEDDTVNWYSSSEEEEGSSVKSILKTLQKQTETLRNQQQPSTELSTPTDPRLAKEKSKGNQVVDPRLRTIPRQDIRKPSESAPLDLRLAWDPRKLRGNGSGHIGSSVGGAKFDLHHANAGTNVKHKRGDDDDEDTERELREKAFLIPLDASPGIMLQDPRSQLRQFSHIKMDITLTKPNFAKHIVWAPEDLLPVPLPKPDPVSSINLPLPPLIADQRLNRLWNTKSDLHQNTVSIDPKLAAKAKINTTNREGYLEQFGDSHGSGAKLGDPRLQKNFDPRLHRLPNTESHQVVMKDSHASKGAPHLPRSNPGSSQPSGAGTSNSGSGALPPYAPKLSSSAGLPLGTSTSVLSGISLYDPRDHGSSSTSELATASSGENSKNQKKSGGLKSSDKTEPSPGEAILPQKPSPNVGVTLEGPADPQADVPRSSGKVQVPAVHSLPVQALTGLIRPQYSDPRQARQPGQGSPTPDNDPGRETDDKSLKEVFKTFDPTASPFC
# UniProt P62837, whole entry: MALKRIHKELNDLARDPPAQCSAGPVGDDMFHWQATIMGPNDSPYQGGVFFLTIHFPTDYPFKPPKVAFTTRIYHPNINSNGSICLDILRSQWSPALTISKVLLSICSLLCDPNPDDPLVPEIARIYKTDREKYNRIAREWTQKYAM
# UniProt P80723: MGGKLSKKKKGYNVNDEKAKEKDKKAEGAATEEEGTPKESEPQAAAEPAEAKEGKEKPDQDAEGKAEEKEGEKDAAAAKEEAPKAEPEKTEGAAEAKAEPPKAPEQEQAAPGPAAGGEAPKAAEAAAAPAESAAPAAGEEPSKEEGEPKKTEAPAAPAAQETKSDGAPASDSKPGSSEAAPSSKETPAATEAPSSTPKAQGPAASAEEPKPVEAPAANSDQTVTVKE
# UniProt P62140, whole entry: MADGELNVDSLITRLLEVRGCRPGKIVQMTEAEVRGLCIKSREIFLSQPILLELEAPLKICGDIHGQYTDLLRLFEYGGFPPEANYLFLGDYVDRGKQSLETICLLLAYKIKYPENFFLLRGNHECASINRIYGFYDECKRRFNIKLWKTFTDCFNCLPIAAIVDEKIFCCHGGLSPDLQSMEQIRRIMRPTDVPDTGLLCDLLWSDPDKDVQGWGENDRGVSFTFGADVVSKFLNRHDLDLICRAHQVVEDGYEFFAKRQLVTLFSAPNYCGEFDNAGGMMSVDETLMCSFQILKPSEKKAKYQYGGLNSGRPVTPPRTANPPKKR
# UniProt P79522: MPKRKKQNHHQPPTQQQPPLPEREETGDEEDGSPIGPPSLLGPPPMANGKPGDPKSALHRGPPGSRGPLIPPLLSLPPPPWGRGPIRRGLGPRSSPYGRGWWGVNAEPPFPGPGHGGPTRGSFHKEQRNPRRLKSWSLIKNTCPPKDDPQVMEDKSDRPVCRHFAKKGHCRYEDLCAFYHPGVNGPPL
# UniProt P55072, whole entry, looked up: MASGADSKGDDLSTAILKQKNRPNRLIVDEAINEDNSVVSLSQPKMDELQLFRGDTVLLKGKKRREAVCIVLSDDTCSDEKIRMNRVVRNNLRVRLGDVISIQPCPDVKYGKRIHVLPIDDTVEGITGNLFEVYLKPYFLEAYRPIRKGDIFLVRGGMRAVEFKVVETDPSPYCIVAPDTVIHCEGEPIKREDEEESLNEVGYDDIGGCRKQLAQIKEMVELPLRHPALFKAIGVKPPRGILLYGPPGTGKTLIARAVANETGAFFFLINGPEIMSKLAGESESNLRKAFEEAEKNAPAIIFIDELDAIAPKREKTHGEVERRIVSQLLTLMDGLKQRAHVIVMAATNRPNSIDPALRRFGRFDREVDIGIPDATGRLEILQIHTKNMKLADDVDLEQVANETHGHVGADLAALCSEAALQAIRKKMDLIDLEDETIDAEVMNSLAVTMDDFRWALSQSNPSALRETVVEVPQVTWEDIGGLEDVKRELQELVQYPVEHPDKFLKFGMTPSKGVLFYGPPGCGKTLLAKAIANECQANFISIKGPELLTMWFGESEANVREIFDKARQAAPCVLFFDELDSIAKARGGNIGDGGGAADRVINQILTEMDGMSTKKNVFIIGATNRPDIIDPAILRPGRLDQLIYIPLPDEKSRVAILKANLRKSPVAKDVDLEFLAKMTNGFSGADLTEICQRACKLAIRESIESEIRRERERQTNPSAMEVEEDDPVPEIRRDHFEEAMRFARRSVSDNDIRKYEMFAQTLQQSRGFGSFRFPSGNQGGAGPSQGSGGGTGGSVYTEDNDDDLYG
# UniProt P54868: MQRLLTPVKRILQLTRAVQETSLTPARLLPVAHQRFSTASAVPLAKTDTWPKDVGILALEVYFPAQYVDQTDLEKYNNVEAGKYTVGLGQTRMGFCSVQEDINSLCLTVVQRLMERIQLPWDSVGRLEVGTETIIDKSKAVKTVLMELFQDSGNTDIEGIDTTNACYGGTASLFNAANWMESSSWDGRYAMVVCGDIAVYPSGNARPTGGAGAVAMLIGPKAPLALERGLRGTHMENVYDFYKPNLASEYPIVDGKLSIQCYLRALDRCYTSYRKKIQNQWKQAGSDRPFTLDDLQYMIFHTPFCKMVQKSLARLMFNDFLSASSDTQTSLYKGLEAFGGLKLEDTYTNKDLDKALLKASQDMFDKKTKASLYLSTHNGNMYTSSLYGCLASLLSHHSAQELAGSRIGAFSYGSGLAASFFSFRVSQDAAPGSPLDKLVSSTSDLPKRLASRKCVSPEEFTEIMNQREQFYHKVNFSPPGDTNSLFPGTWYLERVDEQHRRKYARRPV
# UniProt P60891: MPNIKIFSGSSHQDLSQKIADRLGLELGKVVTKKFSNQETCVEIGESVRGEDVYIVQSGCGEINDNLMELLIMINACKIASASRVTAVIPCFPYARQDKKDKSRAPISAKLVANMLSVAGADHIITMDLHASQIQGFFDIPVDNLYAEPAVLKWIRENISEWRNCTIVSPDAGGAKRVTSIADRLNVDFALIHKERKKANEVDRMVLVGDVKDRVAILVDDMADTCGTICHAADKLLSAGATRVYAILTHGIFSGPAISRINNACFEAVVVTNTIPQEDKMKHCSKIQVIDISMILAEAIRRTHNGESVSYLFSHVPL
# UniProt P55145: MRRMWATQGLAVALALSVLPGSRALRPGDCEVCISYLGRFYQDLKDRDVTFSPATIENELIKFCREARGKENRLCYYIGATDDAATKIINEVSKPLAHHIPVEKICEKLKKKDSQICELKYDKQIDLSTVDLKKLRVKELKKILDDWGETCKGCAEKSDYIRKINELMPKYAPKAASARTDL
# UniProt P69905, whole entry: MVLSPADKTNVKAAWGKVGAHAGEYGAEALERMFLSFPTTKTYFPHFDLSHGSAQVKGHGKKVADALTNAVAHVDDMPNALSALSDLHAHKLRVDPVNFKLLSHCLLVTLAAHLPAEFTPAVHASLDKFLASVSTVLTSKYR
# UniProt P55211: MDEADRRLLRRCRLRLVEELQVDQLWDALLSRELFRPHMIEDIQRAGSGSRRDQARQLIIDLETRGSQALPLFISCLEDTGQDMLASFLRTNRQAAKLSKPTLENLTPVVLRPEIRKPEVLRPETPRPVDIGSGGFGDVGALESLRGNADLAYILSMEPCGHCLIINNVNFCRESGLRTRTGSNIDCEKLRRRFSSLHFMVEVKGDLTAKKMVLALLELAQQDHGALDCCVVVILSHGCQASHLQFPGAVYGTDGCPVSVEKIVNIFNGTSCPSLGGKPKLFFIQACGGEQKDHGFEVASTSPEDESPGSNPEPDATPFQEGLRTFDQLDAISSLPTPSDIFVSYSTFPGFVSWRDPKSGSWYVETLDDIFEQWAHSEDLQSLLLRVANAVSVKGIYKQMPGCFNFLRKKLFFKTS
# UniProt P61009: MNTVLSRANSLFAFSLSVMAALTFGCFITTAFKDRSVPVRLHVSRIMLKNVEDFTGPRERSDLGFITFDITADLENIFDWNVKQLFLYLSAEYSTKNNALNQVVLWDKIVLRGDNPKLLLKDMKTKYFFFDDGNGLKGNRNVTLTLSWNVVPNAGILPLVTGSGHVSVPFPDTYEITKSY
# UniProt P61956, whole entry: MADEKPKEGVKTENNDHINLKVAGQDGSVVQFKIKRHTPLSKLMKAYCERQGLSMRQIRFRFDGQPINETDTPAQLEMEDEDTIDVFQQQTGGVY
# UniProt P54727: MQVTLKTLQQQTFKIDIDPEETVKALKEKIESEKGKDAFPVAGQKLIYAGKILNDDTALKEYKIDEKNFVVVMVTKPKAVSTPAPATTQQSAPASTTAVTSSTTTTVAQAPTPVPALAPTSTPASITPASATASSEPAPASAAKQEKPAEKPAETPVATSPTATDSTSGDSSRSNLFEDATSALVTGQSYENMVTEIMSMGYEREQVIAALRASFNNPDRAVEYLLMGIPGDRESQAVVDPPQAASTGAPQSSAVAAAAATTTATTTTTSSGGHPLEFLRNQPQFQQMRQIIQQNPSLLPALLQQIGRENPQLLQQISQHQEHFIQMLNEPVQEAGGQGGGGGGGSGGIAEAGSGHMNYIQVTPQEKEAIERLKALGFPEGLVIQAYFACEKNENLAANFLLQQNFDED
# UniProt P61981: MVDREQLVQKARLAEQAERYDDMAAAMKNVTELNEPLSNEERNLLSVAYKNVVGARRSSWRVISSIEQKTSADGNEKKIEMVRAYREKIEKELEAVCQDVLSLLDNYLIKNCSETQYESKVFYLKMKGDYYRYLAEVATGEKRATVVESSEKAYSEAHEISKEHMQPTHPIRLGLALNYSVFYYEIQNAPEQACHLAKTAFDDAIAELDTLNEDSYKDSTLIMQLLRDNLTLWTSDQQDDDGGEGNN
# UniProt P55008: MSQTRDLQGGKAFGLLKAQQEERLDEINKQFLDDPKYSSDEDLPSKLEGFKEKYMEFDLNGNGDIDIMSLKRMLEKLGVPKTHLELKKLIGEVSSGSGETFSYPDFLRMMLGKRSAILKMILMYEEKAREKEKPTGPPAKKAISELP
# UniProt P56211: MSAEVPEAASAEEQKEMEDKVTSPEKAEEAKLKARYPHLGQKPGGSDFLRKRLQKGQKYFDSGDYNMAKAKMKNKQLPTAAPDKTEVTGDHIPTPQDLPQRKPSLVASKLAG
# UniProt P80303: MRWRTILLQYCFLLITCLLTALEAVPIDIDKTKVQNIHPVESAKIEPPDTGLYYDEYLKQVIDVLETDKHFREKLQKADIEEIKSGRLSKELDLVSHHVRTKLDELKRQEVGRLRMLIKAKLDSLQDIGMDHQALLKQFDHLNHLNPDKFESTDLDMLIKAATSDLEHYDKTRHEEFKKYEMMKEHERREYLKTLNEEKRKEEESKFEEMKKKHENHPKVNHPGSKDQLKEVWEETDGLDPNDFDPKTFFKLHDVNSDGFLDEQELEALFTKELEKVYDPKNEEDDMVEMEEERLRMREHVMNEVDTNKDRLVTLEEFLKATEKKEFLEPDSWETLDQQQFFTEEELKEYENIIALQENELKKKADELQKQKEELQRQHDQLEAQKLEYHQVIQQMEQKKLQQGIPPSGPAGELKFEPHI
# UniProt P62136, whole entry: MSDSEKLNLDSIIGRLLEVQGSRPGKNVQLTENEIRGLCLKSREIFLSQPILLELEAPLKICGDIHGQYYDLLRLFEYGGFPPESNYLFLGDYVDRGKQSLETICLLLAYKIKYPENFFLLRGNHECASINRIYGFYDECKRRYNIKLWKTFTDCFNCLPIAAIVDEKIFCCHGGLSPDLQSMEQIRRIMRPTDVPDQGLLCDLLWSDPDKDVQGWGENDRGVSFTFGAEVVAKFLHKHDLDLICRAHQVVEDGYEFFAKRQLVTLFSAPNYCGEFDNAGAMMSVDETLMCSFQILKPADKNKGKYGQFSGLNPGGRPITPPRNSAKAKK
# UniProt P63098, whole entry, looked up: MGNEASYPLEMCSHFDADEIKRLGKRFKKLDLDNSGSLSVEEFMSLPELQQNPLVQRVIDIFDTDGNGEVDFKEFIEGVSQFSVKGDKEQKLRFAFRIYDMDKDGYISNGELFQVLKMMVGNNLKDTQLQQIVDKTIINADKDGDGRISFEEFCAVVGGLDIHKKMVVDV
# Some of the results follow. Most values lie at the level of the controls, where differences are scatter.
# Compound: Cc1nc(Nc2ncc(C(=O)Nc3c(C)cccc3Cl)s2)cc(N2CCN(CCO)CC2)n1 [dasatinib]
# Assay: log2 fold change of tryptic peptide abundance, ligand vs vehicle (limited proteolysis) (log2 ratio); higher = more trypsin-susceptible (destabilized)
# Conditions: ligand concentration: 5 uM; sample: K562 cleared lysate
row,Target,log2 fold change
1,"UniProt P61129 (peptide sequence: GNGSGHIGSSVGGAK, peptide start residue: 790)",0.467
2,"UniProt P62837 (peptide sequence: IHKELNDLAR, peptide start residue: 6)",-0.954
3,"UniProt P63313 (peptide sequence: ETIEQEKR, peptide start residue: 33)",0.0734
4,"BASP1 (peptide sequence: TEAPAAPAAQETK, peptide start residue: 151) (UniProt P80723)",0.531
5,"PTEN (peptide sequence: NNIDDVVR, peptide start residue: 48) (UniProt P60484)",0.104
6,"UniProt P62140 (peptide sequence: ICGDIHGQYTDLLR, peptide start residue: 60)",0.951
7,"AK2 (peptide sequence: NLETPLCK, peptide start residue: 86) (UniProt P54819)",-0.145
8,"PRR3 (peptide sequence: NTCPPKDDPQVMEDK, peptide start residue: 141) (UniProt P79522)",-0.0686
9,"UniProt P55072 (peptide sequence: ESIESEIR, peptide start residue: 701)",0.0914
10,"RPL10A (peptide sequence: KVLCLAVAVGHVK, peptide start residue: 161) (UniProt P62906)",0.11
11,"HMGCS2 (peptide sequence: LEVGTETIIDK, peptide start residue: 90) (UniProt P54868)",-0.156
12,"UniProt P57082 (peptide sequence: AGRRMFPSYK, peptide start residue: 92)",-0.0915
13,"UniProt P60891 (peptide sequence: VTSIADRLNVDFALIHK, peptide start residue: 178)",0.118
14,"UniProt P55145 (peptide sequence: QIDLSTVDLK, peptide start residue: 124)",0.213
15,"HBA1 (peptide sequence: VLSPADKTNVK, peptide start residue: 2) (UniProt P69905)",-0.111
16,"CASP9 (peptide sequence: QMPGCFNFLR, peptide start residue: 399) (UniProt P55211)",-0.0944
17,"UniProt P61009 (peptide sequence: NVEDFTGPR, peptide start residue: 50)",0.142
18,"UniProt P61956 (peptide sequence: AYCERQGLSMR, peptide start residue: 46)",0.163
19,"RPS3A (peptide sequence: KTSYAQHQQVRQIR, peptide start residue: 152) (UniProt P61247)",2.19
20,"IGBP1 (peptide sequence: AAPEEFRK, peptide start residue: 288) (UniProt P78318)",0.0619
21,"RAD23B (peptide sequence: NQPQFQQMR, peptide start residue: 281) (UniProt P54727)",-0.0713
22,"UniProt P61981 (peptide sequence: NCSETQYESK, peptide start residue: 111)",0.0877
23,"AIF1 (peptide sequence: THLELKK, peptide start residue: 82) (UniProt P55008)",0.309
24,"ARPP19 (peptide sequence: YPHLGQKPGGSDFLRK, peptide start residue: 36) (UniProt P56211)",-0.0694
25,"NUCB2 (peptide sequence: KKHENHPK, peptide start residue: 212) (UniProt P80303)",-0.757
26,"PPP1CA (peptide sequence: GKYGQFSGLNPGGRPITPPR, peptide start residue: 304) (UniProt P62136)",-0.15
27,"EPPK1 (peptide sequence: AEIIDQDLYERLEHGQATAK, peptide start residue: 575) (UniProt P58107)",0.438
28,"UniProt P63098 (peptide sequence: DTQLQQIVDK, peptide start residue: 126)",0.514
29,"UniProt P62857 (peptide sequence: MDTSRVQPIKLAR, peptide start residue: 1)",0.282

# Reprinted at random: 2 entries already listed, in no set order.
row,Target,log2 fold change
5,"PTEN (peptide sequence: NNIDDVVR, peptide start residue: 48) (UniProt P60484)",0.104
13,"UniProt P60891 (peptide sequence: VTSIADRLNVDFALIHK, peptide start residue: 178)",0.118
